Data on 3 molecules can be found in publication doi:10.1101/2021.12.16.472961.

By UniProt entry, the sequences of proteins in these tests, tags left out.
UniProt Q9BZ95: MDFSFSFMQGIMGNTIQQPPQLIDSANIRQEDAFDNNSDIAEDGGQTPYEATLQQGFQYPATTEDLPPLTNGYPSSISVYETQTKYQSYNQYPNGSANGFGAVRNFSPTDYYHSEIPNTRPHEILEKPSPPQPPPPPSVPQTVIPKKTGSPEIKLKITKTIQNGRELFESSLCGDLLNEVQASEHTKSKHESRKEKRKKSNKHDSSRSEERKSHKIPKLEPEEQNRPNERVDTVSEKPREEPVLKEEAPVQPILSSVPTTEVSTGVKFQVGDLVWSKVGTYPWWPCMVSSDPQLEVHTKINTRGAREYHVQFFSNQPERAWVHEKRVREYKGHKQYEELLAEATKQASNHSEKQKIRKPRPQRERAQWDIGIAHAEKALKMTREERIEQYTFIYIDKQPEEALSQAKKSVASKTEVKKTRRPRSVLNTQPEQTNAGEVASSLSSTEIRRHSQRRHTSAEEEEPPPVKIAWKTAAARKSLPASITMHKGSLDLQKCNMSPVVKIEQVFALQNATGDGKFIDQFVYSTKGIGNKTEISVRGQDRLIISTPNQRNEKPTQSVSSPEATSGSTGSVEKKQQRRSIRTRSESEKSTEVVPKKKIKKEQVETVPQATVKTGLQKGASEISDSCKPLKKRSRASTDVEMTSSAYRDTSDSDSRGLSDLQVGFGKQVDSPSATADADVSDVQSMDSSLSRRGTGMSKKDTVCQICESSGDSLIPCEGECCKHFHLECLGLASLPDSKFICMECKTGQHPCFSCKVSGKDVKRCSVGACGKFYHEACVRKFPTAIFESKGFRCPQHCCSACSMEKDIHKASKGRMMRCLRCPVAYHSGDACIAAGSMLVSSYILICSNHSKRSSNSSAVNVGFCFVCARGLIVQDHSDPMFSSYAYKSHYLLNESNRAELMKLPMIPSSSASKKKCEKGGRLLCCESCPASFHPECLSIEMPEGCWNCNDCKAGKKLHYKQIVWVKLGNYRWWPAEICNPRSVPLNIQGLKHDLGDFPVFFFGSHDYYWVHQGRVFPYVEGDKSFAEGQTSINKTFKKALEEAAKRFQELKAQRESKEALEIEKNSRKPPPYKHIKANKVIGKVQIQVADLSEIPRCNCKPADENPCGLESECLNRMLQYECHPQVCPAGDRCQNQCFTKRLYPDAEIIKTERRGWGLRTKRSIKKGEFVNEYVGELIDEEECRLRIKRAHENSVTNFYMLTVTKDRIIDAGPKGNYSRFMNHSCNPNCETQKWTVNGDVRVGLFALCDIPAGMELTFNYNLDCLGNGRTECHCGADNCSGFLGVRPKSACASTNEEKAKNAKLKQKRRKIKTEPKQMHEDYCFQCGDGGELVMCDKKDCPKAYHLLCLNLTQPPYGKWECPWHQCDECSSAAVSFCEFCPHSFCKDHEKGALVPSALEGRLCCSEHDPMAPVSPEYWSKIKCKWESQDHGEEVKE
UniProt Q6KC79: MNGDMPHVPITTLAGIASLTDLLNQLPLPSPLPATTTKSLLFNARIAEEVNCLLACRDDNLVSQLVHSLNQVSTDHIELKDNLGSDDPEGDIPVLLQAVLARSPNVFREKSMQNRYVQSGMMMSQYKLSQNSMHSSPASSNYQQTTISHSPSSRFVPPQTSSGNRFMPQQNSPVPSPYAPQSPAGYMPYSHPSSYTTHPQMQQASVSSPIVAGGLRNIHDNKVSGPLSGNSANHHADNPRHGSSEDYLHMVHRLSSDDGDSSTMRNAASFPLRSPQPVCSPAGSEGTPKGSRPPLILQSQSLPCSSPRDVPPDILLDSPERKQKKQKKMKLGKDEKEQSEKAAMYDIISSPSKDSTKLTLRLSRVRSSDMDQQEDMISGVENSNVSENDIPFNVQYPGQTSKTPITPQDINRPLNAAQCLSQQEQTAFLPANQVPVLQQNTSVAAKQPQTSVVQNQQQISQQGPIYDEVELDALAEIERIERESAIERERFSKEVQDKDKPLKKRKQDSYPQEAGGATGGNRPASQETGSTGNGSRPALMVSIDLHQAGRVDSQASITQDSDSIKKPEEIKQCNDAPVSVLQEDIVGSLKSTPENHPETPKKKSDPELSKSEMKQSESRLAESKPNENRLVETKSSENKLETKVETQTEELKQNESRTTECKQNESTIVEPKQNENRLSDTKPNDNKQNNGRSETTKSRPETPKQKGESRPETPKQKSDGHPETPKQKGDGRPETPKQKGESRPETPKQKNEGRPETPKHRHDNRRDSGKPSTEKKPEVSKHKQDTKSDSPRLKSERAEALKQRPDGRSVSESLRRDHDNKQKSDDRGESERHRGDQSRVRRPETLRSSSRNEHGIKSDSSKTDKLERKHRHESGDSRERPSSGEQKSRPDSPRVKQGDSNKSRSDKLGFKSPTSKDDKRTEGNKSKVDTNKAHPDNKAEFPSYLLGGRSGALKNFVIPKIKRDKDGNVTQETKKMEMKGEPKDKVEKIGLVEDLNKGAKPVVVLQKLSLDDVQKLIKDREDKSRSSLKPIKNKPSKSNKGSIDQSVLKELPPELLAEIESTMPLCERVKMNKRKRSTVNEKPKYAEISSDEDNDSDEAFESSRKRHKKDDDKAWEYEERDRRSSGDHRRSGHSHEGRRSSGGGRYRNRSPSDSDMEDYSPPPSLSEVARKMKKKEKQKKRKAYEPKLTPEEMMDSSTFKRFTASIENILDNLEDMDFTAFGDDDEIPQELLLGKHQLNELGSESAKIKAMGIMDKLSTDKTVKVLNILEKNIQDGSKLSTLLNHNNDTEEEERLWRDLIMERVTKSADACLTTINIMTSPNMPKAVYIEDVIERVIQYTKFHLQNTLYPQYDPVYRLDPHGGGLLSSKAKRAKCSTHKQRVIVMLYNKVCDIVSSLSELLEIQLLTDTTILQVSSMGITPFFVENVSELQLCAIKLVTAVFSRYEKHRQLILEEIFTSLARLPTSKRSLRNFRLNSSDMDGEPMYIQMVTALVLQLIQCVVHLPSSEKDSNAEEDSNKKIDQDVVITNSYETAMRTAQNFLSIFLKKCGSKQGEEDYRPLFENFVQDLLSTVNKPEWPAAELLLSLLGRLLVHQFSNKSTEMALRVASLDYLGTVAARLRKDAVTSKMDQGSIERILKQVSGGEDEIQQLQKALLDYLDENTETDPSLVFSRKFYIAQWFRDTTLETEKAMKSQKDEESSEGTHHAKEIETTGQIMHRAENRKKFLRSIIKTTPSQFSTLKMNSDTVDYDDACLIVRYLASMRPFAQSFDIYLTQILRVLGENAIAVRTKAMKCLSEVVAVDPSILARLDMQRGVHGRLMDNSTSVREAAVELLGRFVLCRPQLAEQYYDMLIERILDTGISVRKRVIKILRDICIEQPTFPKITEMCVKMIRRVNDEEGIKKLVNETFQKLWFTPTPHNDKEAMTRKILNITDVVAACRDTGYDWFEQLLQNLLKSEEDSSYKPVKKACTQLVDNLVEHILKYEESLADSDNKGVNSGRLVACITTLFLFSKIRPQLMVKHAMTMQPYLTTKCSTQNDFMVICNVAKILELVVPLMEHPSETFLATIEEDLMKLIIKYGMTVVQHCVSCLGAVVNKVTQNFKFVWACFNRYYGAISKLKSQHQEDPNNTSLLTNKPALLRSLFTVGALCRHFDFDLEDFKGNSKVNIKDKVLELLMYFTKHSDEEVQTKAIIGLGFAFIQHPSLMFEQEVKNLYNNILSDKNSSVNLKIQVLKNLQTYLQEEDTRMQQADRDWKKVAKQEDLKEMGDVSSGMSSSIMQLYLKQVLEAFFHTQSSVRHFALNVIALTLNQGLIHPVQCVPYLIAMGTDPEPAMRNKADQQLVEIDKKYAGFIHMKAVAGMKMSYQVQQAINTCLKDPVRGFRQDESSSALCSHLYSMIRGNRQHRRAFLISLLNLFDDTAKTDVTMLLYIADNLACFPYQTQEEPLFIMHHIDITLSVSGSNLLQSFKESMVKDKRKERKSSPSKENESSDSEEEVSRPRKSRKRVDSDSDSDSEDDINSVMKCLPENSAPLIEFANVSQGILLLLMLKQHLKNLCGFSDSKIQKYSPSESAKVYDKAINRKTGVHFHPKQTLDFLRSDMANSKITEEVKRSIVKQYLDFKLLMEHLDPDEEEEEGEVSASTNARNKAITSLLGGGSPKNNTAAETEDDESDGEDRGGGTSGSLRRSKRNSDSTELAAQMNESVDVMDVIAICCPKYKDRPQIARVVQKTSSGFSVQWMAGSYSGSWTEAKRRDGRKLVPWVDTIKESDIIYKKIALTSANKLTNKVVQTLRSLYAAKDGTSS

These are yes or no findings as the source states them, for the method shown. Binding seen in cells or lysates may run through a third protein. Some binding calls cover weakened binding; strength is not graded here.

Common to all, as to assay: co-IP
For assay [1], the target named is NSD3 (histone-lysine N-methyltransferase NSD3), endogenous (human (endogenous in HeLa)) (UniProt Q9BZ95).
The target in assay [2] is EmGFP-NSD3-L (full-length NSD3 long isoform fused to a LAP tag: FLAG followed by EmGFP) (human) (UniProt Q9BZ95).
For assay [3], the target named is Nipped-B-like protein, endogenous (human (endogenous in HeLa)) (UniProt Q6KC79).

As for “Nipped-B-like protein, endogenous (from UniProt Q6KC79 1-2804)”, the binding result in assay [1] and in assay [2] was “binds” each time.

Regarding “NSD3 (histone-lysine N-methyltransferase NSD3), endogenous (from UniProt Q9BZ95 1-1437)”, the binding result in assay [3] is given as “binds”.

B1: MAU2 sister chromatid cohesion factor, endogenous (protein, UniProt Q9Y6X3 1-613)
chain: MAAQAAAAAQAAAAQAAQAEAADSWYLALLGFAEHFRTSSPPKIRLCVHCLQAVFPFKPPQRIEARTHLQLGSVLYHHTKNSEQARSHLEKAWLISQQIPQFEDVKFEAASLLSELYCQENSVDAAKPLLRKAIQISQQTPYWHCRLLFQLAQLHTLEKDLVSACDLLGVGAEYARVVGSEYTRALFLLSKGMLLLMERKLQEVHPLLTLCGQIVENWQGNPIQKESLRVFFLVLQVTHYLDAGQVKSVKPCLKQLQQCIQTISTLHDDEILPSNPADLFHWLPKEHMCVLVYLVTVMHSMQAGYLEKAQKYTDKALMQLEKLKMLDCSPILSSFQVILLEHIIMCRLVTGHKATALQEISQVCQLCQQSPRLFSNHAAQLHTLLGLYCVSVNCMDNAEAQFTTALRLTNHQELWAFIVTNLASVYIREGNRHQEVLYSLLERINPDHSFPVSSHCLRAAAFYVRGLFSFFQGRYNEAKRFLRETLKMSNAEDLNRLTACSLVLLGHIFYVLGNHRESNNMVVPAMQLASKIPDMSVQLWSSALLRDLNKACGNAMDAHEAAQMHQNFSQQLLQDHIEACSLPEHNLITWTDGPPPVQFQAQNGPNTSLASLL
As to B1, the binding result in assay [3], in assay [1] and in assay [2] was “binds” throughout.
